PubChem BioAssay AID1508597 – Cure First – 2020
Test: 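Genes whose silencing sensitises or protects ovarian cancer cells against rucaparib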 (primary screen). System: human ovarian carcinoma lines grown from tumours: OCI-P5x (papillary serous) and OCI-C5x (clear cell). Reagents: siRNA pool against human genes, 1.25 pmol siRNA per well. Duration: 72 h or 96 h, depending on the cell culture. Challenge: rucaparib 20 µM (about IC30) or vehicle, present until read-out. Measurement: 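Luminescent ATP-based viability assay read 72 or 96 h after transfection, depending on culture, given as normalised percent viability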. Direction: viability, normalised: higher = more viable cells remaining. Hit rule: 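a well counts as a hit if its normalised viability is under 80 percent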. Meaning of the calls: active = viability under 80%; inactive = viability 80% or more.
In all, the deposit lists about 2,100 reagents; below is a part drawn at random. 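Calls flag viability under 80% in either arm, not effects specific to rucaparib; the reference for percent is not stated.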 Some reagents were tested in more than one well and are listed for each. Not stated in the record: the 100% reference.

gene knocked down | rucaparib or vehicle | cell line | technical replicate | viability, normalised (%) | Outcome
WNK1 | Rucaparib | OCI-C5x (clear cell) | 1 | 55 | active
WNK1 | Rucaparib | OCI-C5x (clear cell) | 1 | 63.7 | active
WNK1 | Rucaparib | OCI-C5x (clear cell) | 2 | 40.6 | active
WNK1 | Rucaparib | OCI-C5x (clear cell) | 2 | 61.7 | active
WNK1 | Rucaparib | OCI-C5x (clear cell) | 3 | 62.4 | active
WNK1 | Rucaparib | OCI-C5x (clear cell) | 3 | 34.8 | active
WNK1 | Rucaparib | OCI-P5x (serous) | 1 | 85.6 | inactive
WNK1 | Rucaparib | OCI-P5x (serous) | 1 | 62.3 | active
WNK1 | Rucaparib | OCI-P5x (serous) | 2 | 92.9 | inactive
WNK1 | Rucaparib | OCI-P5x (serous) | 2 | 77.8 | active
WNK1 | Rucaparib | OCI-P5x (serous) | 3 | 88 | inactive
WNK1 | Vehicle | OCI-C5x (clear cell) | 1 | 60.7 | active
WNK1 | Vehicle | OCI-C5x (clear cell) | 1 | 60.2 | active
WNK1 | Vehicle | OCI-C5x (clear cell) | 2 | 55.6 | active
WNK1 | Vehicle | OCI-C5x (clear cell) | 2 | 37.2 | active
WNK1 | Vehicle | OCI-C5x (clear cell) | 3 | 36.1 | active
WNK1 | Vehicle | OCI-C5x (clear cell) | 3 | 65 | active
WNK1 | Vehicle | OCI-P5x (serous) | 1 | 78.2 | active
WNK1 | Vehicle | OCI-P5x (serous) | 1 | 80.5 | inactive
WNK1 | Vehicle | OCI-P5x (serous) | 2 | 93.7 | inactive
WNK1 | Vehicle | OCI-P5x (serous) | 2 | 72.8 | active
WNK1 | Vehicle | OCI-P5x (serous) | 3 | 79.1 | active
WNK1 | Vehicle | OCI-P5x (serous) | 3 | 85.1 | inactive
ZKSCAN2 | Rucaparib | OCI-C5x (clear cell) | 1 | 67.8 | active
ZKSCAN2 | Rucaparib | OCI-C5x (clear cell) | 2 | 79.5 | active
ZKSCAN2 | Rucaparib | OCI-C5x (clear cell) | 3 | 58.8 | active
ZKSCAN2 | Rucaparib | OCI-P5x (serous) | 1 | 75.2 | active
ZKSCAN2 | Rucaparib | OCI-P5x (serous) | 2 | 69.6 | active
ZKSCAN2 | Rucaparib | OCI-P5x (serous) | 3 | 70.6 | active
ZKSCAN2 | Vehicle | OCI-C5x (clear cell) | 1 | 65.6 | active
ZKSCAN2 | Vehicle | OCI-C5x (clear cell) | 2 | 48.3 | active
ZKSCAN2 | Vehicle | OCI-C5x (clear cell) | 3 | 63.5 | active
ZKSCAN2 | Vehicle | OCI-P5x (serous) | 1 | 78.3 | active
ZKSCAN2 | Vehicle | OCI-P5x (serous) | 2 | 88.7 | inactive
ZKSCAN2 | Vehicle | OCI-P5x (serous) | 3 | 82.2 | inactive
MAP3K20 | Rucaparib | OCI-C5x (clear cell) | 1 | 51 | active
MAP3K20 | Rucaparib | OCI-C5x (clear cell) | 2 | 74.7 | active
MAP3K20 | Rucaparib | OCI-C5x (clear cell) | 3 | 64.6 | active
MAP3K20 | Rucaparib | OCI-P5x (serous) | 1 | 80.5 | inactive
MAP3K20 | Rucaparib | OCI-P5x (serous) | 2 | 67.1 | active
MAP3K20 | Rucaparib | OCI-P5x (serous) | 3 | 75.5 | active
MAP3K20 | Vehicle | OCI-C5x (clear cell) | 1 | 58.8 | active
MAP3K20 | Vehicle | OCI-C5x (clear cell) | 2 | 75.5 | active
MAP3K20 | Vehicle | OCI-C5x (clear cell) | 3 | 59.3 | active
MAP3K20 | Vehicle | OCI-P5x (serous) | 1 | 69.7 | active
MAP3K20 | Vehicle | OCI-P5x (serous) | 2 | 75.6 | active
MAP3K20 | Vehicle | OCI-P5x (serous) | 3 | 75 | active
NSD2 | Rucaparib | OCI-C5x (clear cell) | 1 | 47.4 | active
NSD2 | Rucaparib | OCI-C5x (clear cell) | 2 | 58.1 | active
NSD2 | Rucaparib | OCI-C5x (clear cell) | 3 | 37.9 | active
NSD2 | Rucaparib | OCI-P5x (serous) | 1 | 55.1 | active
NSD2 | Rucaparib | OCI-P5x (serous) | 2 | 53.5 | active
NSD2 | Rucaparib | OCI-P5x (serous) | 3 | 35.8 | active
NSD2 | Vehicle | OCI-C5x (clear cell) | 1 | 57.9 | active
NSD2 | Vehicle | OCI-C5x (clear cell) | 2 | 47.4 | active
NSD2 | Vehicle | OCI-C5x (clear cell) | 3 | 50.4 | active
NSD2 | Vehicle | OCI-P5x (serous) | 1 | 54.2 | active
NSD2 | Vehicle | OCI-P5x (serous) | 2 | 49.7 | active
NSD2 | Vehicle | OCI-P5x (serous) | 3 | 62.6 | active
MACROD2 | Rucaparib | OCI-C5x (clear cell) | 1 | 59 | active
MACROD2 | Rucaparib | OCI-C5x (clear cell) | 2 | 44.9 | active
MACROD2 | Rucaparib | OCI-C5x (clear cell) | 3 | 43.8 | active
MACROD2 | Rucaparib | OCI-P5x (serous) | 1 | 54 | active
MACROD2 | Rucaparib | OCI-P5x (serous) | 2 | 50.2 | active
MACROD2 | Rucaparib | OCI-P5x (serous) | 3 | 55.3 | active
MACROD2 | Vehicle | OCI-C5x (clear cell) | 1 | 44.6 | active
MACROD2 | Vehicle | OCI-C5x (clear cell) | 2 | 67.4 | active
MACROD2 | Vehicle | OCI-C5x (clear cell) | 3 | 75.3 | active
MACROD2 | Vehicle | OCI-P5x (serous) | 1 | 64.3 | active
MACROD2 | Vehicle | OCI-P5x (serous) | 2 | 62.5 | active
MACROD2 | Vehicle | OCI-P5x (serous) | 3 | 97.2 | inactive
SMARCA2 | Rucaparib | OCI-C5x (clear cell) | 1 | 33.3 | active
SMARCA2 | Rucaparib | OCI-C5x (clear cell) | 2 | 59.6 | active
SMARCA2 | Rucaparib | OCI-C5x (clear cell) | 3 | 53.6 | active
SMARCA2 | Rucaparib | OCI-P5x (serous) | 1 | 50.2 | active
SMARCA2 | Rucaparib | OCI-P5x (serous) | 2 | 62 | active
SMARCA2 | Rucaparib | OCI-P5x (serous) | 3 | 51 | active
SMARCA2 | Vehicle | OCI-C5x (clear cell) | 1 | 40 | active
SMARCA2 | Vehicle | OCI-C5x (clear cell) | 2 | 43.8 | active
SMARCA2 | Vehicle | OCI-C5x (clear cell) | 3 | 52.7 | active
SMARCA2 | Vehicle | OCI-P5x (serous) | 1 | 51.6 | active
SMARCA2 | Vehicle | OCI-P5x (serous) | 2 | 53.3 | active
SMARCA2 | Vehicle | OCI-P5x (serous) | 3 | 60.8 | active
